System: U2Os (human osteosarcoma cells)
Assay: Intracellular distribution by confocal laser
Format: cell-based
Details: 10 μM and 5 μM, 8 h and 24 h; for Intracellular distribution (fluorescence co-localization): DAPI nuclear stain

| Structure (SMILES) | Intracellular distribution (fluorescence co-localization) | Content entering the cell |
| --- | --- | --- |
| CC(C)C[C@H](Nc1ccc([N+](=O)[O-])c2nonc12)C(=O)N[C@H](C(=O)OCc1ccccc1)C(C)C [ZD-B, NBD-LV-OBzl] | did not enter the nucleus, but was dispersed in the cytoplasm |  |
| N=C(CCl)NCCC[C@H](Nc1ccc([N+](=O)[O-])c2nonc12)C(=O)NCc1ccccc1 [ZD-E-1, (S)—N-benzyl-5-(2-chloroacetimido)-2-((7-nitro-2,1,3-benzoxadiazol-4-yl)amino)pentaneamide] | distributed in both the nucleus and cytoplasm | increasing content entering the cell with an increase of concentration and the extension of time |

Reference: US12673120B2, “Fluorescently-traceable amino acid derivative and preparation methods and use thereof” (priority 2020, dated 2026)
